Chains of the proteins cited; added tags and fusions are not shown. Lines headed by an entry give the natural chain unless they say otherwise; changes in a name come on top.
UniProt P25205: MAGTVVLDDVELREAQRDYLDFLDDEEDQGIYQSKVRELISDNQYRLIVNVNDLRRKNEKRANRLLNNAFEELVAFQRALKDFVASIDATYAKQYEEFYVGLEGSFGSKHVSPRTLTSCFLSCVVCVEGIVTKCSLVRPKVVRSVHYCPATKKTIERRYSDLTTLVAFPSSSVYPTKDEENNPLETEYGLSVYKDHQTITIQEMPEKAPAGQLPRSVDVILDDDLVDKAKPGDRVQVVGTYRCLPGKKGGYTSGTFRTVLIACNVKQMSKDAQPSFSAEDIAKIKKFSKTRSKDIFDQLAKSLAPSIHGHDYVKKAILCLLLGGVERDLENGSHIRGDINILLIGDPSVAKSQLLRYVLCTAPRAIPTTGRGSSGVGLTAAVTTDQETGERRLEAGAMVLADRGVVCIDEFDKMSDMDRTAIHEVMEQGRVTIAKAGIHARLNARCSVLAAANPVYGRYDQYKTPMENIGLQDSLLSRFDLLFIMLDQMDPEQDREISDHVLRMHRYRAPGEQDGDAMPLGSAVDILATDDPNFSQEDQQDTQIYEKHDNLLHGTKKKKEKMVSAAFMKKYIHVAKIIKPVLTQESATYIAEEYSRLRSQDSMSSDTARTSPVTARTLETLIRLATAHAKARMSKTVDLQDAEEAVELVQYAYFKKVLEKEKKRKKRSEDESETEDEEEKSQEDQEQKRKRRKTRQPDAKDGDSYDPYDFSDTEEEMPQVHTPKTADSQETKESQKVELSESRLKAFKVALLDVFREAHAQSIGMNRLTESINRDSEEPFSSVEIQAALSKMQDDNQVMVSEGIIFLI
UniProt Q68D91: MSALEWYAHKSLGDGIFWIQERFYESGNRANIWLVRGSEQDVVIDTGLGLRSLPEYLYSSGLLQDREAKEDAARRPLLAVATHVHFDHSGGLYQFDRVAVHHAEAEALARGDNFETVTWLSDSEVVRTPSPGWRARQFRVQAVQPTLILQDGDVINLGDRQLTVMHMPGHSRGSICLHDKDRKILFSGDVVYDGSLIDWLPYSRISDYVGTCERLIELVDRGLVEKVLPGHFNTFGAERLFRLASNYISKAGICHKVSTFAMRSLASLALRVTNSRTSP
UniProt O95243: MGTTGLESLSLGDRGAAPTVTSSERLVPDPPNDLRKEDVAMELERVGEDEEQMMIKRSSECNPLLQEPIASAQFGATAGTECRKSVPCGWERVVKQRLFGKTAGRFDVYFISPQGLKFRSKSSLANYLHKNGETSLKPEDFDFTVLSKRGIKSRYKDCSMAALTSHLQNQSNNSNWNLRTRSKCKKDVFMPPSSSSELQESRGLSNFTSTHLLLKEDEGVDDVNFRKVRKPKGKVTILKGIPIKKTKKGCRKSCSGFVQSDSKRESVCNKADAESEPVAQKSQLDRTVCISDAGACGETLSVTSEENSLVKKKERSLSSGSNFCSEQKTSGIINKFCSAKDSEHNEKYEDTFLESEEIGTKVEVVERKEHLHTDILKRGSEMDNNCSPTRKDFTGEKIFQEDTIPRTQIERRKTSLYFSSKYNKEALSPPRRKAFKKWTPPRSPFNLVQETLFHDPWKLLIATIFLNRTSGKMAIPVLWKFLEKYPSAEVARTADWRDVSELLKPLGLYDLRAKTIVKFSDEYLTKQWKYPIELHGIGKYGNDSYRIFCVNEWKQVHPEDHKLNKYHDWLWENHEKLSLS
UniProt Q06413, whole entry, looked up: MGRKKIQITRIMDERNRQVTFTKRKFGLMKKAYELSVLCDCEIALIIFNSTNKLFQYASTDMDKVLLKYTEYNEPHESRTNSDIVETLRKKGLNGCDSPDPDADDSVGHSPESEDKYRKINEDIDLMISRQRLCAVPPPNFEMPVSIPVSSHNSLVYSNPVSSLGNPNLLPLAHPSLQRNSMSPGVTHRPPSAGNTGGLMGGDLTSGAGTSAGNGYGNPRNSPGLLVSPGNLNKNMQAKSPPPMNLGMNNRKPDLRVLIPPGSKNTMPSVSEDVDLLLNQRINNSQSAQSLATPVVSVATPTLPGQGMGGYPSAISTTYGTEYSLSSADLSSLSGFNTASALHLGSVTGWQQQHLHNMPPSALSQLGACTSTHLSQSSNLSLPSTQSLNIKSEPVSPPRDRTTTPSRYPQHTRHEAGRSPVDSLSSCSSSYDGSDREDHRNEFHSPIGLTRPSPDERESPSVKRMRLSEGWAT
UniProt Q14676: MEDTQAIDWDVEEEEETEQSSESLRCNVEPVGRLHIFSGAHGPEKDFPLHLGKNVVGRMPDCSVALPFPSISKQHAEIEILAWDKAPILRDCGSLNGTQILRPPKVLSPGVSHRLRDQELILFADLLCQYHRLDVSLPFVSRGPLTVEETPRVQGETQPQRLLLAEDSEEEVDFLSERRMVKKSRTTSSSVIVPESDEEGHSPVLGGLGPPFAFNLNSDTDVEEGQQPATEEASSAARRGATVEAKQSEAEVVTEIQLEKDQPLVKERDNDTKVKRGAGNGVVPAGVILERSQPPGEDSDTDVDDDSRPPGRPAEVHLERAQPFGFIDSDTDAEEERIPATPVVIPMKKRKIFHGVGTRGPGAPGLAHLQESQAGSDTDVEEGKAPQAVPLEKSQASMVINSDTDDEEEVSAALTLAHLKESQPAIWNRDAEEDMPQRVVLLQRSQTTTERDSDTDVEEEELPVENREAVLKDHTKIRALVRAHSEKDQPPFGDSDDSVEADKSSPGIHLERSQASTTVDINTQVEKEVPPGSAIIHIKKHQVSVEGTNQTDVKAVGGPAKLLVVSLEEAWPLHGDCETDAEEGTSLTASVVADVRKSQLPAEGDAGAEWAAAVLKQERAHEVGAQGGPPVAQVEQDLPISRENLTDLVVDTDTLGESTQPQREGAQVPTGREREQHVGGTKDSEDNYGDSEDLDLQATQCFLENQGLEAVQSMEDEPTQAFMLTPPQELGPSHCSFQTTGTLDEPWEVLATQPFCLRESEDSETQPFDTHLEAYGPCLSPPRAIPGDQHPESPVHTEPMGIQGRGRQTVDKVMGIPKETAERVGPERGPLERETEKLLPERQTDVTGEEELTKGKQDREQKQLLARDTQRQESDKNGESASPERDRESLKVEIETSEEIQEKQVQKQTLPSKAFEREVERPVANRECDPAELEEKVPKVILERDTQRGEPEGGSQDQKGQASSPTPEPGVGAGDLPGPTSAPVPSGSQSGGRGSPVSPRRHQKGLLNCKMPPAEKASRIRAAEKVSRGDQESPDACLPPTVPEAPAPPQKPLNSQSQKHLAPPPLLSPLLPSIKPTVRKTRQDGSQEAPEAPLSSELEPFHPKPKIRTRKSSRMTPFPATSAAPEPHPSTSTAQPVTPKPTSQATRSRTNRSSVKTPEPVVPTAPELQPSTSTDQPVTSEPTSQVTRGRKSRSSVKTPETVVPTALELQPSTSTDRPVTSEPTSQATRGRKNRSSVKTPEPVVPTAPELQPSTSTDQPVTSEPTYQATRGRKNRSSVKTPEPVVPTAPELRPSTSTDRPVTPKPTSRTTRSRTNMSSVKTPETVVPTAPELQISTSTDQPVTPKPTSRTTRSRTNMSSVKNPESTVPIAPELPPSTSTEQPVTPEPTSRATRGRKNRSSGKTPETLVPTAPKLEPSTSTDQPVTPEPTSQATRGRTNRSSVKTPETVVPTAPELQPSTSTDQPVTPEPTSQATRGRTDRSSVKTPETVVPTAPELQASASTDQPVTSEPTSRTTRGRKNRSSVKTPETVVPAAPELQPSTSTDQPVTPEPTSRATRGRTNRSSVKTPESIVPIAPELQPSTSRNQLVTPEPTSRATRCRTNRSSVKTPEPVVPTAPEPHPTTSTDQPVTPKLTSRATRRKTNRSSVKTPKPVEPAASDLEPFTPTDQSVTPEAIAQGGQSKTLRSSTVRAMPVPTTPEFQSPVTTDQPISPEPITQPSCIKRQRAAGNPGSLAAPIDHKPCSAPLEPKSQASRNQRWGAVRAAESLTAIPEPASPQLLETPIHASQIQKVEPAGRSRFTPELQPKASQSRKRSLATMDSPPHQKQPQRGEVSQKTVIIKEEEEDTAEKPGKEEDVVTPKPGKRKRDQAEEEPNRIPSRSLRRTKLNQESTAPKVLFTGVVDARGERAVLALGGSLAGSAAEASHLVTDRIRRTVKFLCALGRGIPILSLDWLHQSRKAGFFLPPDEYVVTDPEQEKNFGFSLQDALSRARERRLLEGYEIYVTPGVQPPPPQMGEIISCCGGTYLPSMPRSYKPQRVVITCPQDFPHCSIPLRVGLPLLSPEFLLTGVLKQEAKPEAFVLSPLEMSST
UniProt Q6UB28: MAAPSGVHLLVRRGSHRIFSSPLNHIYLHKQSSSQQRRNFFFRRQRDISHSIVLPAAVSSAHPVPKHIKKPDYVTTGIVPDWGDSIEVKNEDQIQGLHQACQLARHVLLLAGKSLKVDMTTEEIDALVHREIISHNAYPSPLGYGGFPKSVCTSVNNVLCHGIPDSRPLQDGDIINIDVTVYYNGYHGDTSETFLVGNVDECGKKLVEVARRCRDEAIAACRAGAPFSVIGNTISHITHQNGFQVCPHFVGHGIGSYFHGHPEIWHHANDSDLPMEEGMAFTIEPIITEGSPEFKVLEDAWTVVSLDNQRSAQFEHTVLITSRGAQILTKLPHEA
UniProt Q96RQ3: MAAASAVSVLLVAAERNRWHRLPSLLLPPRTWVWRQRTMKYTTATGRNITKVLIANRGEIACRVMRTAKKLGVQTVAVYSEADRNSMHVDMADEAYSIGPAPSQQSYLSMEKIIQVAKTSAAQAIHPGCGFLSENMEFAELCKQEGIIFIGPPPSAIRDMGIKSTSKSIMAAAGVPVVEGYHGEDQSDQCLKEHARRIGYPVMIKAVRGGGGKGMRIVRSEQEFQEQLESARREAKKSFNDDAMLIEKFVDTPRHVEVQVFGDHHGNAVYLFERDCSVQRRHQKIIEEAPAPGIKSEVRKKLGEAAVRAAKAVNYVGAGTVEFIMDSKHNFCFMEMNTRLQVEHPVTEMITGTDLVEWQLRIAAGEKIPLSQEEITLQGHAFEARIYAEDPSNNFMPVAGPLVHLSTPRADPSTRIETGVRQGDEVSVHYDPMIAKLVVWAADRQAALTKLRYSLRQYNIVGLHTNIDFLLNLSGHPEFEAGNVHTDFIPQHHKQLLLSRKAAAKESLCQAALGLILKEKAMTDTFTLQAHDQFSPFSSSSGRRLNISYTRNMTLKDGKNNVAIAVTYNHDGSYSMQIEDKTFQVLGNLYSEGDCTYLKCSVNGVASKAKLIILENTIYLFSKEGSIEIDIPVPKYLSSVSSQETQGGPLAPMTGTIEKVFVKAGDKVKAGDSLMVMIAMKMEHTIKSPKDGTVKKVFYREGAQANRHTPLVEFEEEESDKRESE
UniProt Q16626: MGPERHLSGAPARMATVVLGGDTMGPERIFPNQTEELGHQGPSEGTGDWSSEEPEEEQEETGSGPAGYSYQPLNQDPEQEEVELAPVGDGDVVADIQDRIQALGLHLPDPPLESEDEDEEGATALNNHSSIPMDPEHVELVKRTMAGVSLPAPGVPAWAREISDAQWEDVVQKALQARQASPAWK
UniProt Q9H3U5: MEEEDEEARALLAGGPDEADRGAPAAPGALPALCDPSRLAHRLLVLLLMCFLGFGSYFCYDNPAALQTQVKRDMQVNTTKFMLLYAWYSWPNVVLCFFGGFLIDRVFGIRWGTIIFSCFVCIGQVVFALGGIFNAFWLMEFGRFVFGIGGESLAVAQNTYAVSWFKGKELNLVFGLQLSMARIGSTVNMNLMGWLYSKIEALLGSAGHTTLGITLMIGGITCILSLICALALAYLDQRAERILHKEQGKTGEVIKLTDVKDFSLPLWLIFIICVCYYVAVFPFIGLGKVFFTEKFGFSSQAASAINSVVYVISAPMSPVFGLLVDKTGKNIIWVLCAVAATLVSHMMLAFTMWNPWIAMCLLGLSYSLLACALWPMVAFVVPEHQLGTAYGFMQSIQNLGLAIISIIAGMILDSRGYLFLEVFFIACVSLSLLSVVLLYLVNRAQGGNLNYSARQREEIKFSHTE
UniProt P43121, whole entry, looked up: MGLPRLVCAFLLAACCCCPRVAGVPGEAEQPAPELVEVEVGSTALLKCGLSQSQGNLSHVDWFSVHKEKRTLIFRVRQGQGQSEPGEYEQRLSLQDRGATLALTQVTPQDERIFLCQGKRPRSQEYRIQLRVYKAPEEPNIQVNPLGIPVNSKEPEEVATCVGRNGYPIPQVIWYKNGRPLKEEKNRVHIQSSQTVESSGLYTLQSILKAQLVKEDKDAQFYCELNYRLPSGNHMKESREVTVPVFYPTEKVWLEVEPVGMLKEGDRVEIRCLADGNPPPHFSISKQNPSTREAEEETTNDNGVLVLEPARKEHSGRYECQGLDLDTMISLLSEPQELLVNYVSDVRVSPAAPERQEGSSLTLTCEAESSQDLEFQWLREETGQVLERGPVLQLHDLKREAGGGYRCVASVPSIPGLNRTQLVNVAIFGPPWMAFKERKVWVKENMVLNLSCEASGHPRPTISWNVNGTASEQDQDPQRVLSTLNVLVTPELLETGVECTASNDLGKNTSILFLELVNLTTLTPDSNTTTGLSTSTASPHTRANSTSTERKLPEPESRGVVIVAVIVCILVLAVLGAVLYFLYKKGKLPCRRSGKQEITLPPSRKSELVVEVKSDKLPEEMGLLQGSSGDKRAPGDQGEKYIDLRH

The list shows a part of the results.
The targets below were run with Cn1cc(CNCC2CCN(c3ncc(C(=O)NO)cn3)CC2)c2ccccc21 [quisinostat] (assay: log2 fold change, soluble protein after heating vs DMSO (PISA); higher = thermal stabilisation; K562 lysate, 10 uM; active = over 0.2 and 3.5 SD of the protein, either way, in both replicates (recomputed)).
Procedure, shortened: (§1)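 Dounce homogenisation of K562 pellets in PBS pH 7.4 with 1 mM MgCl2 produced a crude extract, used at 1 mg/mL protein. Exposure to 10 μM compound lasted 30 min, and aliquots were then heated for 3 min across 48°C-58°C, pooled and brought to 0.5% NP-40 at 4°C. The supernatant after 21,000xg for 90 min was quantified by TMTpro 16plex LC-MS/MS with channel sums equalised. Duplicate values are given as log-two fold change in thermal stability relative to solvent controls.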
For MCM3 isoform 2 (UniProt P25205), the log2 fold change was inactive: 0.042. MBLAC2 (UniProt Q68D91) was tested, and the log2 fold change was inactive: 0.026. In the case of MFF isoform 2 (UniProt Q9GZY8), the log2 fold change is reported as inactive: 0.002. In the case of MED15 (UniProt Q96RN5), the log2 fold change is reported as inactive: 0. For MBD4 (UniProt O95243), the log2 fold change was inactive: -0.044. For MBOAT7 (UniProt Q96N66), the log2 fold change was inactive: 0.028. For MEF2C isoform 2 (UniProt Q06413), the log2 fold change was inactive: 0.15. For MED20 (UniProt Q9H944), the log2 fold change was inactive: -0.01. In the case of MDC1 (UniProt Q14676), the log2 fold change is reported as inactive: -0.046. With MCTS1 isoform 3 (UniProt Q9ULC4) the log2 fold change was inactive: 0.077. For MDH2 (UniProt P40926), the log2 fold change was inactive: 0.002. In the case of MDN1 (UniProt Q9NU22), the log2 fold change is reported as inactive: -0.124. In the case of METAP1D (UniProt Q6UB28), the log2 fold change is reported as inactive: 0.046. In the case of MEF2C isoform 5 (UniProt Q06413), the log2 fold change is reported as inactive: -0.018. For METTL14 (UniProt Q9HCE5), the log2 fold change was inactive: 0. In the case of MED24 (UniProt O75448), the log2 fold change is reported as inactive: -0.062. For MCCC1 (UniProt Q96RQ3), the log2 fold change was inactive: -0.049. MFSD4B (UniProt Q5TF39) was tested, and the log2 fold change was inactive: 0.282. MEA1 (UniProt Q16626) was tested, and the log2 fold change was inactive: -0.043. MED9 (UniProt Q9NWA0) was tested, and the log2 fold change was inactive: 0.151. With MBIP (UniProt Q9NS73) the log2 fold change was inactive: -0.103. MED12 isoform 2 (UniProt Q93074) was tested, and the log2 fold change was inactive: -0.05. MFSD1 isoform 6 (UniProt Q9H3U5) was tested, and the log2 fold change was inactive: 0.046. For MEN1 (UniProt O00255), the log2 fold change was inactive: -0.09. In the case of METTL18 (UniProt O95568), the log2 fold change is reported as inactive: -0.117. For MFN2 (UniProt O95140), the log2 fold change was inactive: -0.017. MEPCE (UniProt Q7L2J0) was tested, and the log2 fold change was inactive: 0.008. For MCAT (UniProt Q8IVS2), the log2 fold change was inactive: -0.008. With MBD3 (UniProt O95983) the log2 fold change was inactive: 0.045. In the case of MDH1 isoform 3 (UniProt P40925), the log2 fold change is reported as inactive: 0.052. For MCAM (UniProt P43121), the log2 fold change was inactive: 0.016. MATR3 (UniProt P43243) was tested, and the log2 fold change was inactive: -0.119. In the case of MDP1 (UniProt Q86V88), the log2 fold change is reported as inactive: -0.058. In the case of MEX3D isoform 3 (UniProt Q86XN8), the log2 fold change is reported as inactive: -0.041. For MCU (UniProt Q8NE86), the log2 fold change was inactive: -0.054. METTL3 (UniProt Q86U44) was tested, and the log2 fold change was inactive: 0.012. MCUR1 (UniProt Q96AQ8) was tested, and the log2 fold change was inactive: 0.004. MED28 (UniProt Q9H204) was tested, and the log2 fold change was inactive: -0.007. For METAP1 (UniProt P53582), the log2 fold change was inactive: 0.002.

The targets below were run with Cn1cncc1[C@@](N)(c1ccc(Cl)cc1)c1ccc2c(c1)c(-c1cccc(Cl)c1)cc(=O)n2C [tipifarnib] in the same assay as above.
Procedure, shortened: as §1
For MCM3 isoform 2 (UniProt P25205), the log2 fold change was inactive: 0.008. MBLAC2 (UniProt Q68D91) was tested, and the log2 fold change was inactive: 0.08. For MFF isoform 2 (UniProt Q9GZY8), the log2 fold change was inactive: -0.004. In the case of MED15 (UniProt Q96RN5), the log2 fold change is reported as inactive: 0.007. MBD4 (UniProt O95243) was tested, and the log2 fold change was inactive: -0.024. With MBOAT7 (UniProt Q96N66) the log2 fold change was inactive: 0.057. In the case of MEF2C isoform 2 (UniProt Q06413), the log2 fold change is reported as inactive: -0.088. In the case of MED20 (UniProt Q9H944), the log2 fold change is reported as inactive: 0.003. MDC1 (UniProt Q14676) was tested, and the log2 fold change was inactive: -0.082. With MCTS1 isoform 3 (UniProt Q9ULC4) the log2 fold change was inactive: 0.037. For MDH2 (UniProt P40926), the log2 fold change was inactive: 0.009. In the case of MDN1 (UniProt Q9NU22), the log2 fold change is reported as inactive: -0.027. For METAP1D (UniProt Q6UB28), the log2 fold change was inactive: -0.014. With MEF2C isoform 5 (UniProt Q06413) the log2 fold change was inactive: -0.08. For METTL14 (UniProt Q9HCE5), the log2 fold change was inactive: 0.041. For MED24 (UniProt O75448), the log2 fold change was inactive: -0.017. For MCCC1 (UniProt Q96RQ3), the log2 fold change was inactive: 0.031. In the case of MFSD4B (UniProt Q5TF39), the log2 fold change is reported as inactive: -0.367. With MEA1 (UniProt Q16626) the log2 fold change was inactive: 0.044. MED9 (UniProt Q9NWA0) was tested, and the log2 fold change was inactive: 0.149. MBIP (UniProt Q9NS73) was tested, and the log2 fold change was inactive: 0.004. For MED12 isoform 2 (UniProt Q93074), the log2 fold change was inactive: 0.005. In the case of MFSD1 isoform 6 (UniProt Q9H3U5), the log2 fold change is reported as inactive: -0.209. With MEN1 (UniProt O00255) the log2 fold change was inactive: -0.005. For METTL18 (UniProt O95568), the log2 fold change was inactive: -0.049. With MFN2 (UniProt O95140) the log2 fold change was inactive: -0.039. For MEPCE (UniProt Q7L2J0), the log2 fold change was inactive: -0.004. For MCAT (UniProt Q8IVS2), the log2 fold change was inactive: 0.02. In the case of MBD3 (UniProt O95983), the log2 fold change is reported as inactive: -0.004. With MDH1 isoform 3 (UniProt P40925) the log2 fold change was inactive: 0.029. With MCAM (UniProt P43121) the log2 fold change was inactive: 0.011. In the case of MATR3 (UniProt P43243), the log2 fold change is reported as inactive: -0.06. MDP1 (UniProt Q86V88) was tested, and the log2 fold change was inactive: 0.046. For MEX3D isoform 3 (UniProt Q86XN8), the log2 fold change was inactive: -0.057. With MCU (UniProt Q8NE86) the log2 fold change was inactive: -0.096. For METTL3 (UniProt Q86U44), the log2 fold change was inactive: 0.014. For MCUR1 (UniProt Q96AQ8), the log2 fold change was inactive: -0.008. For MED28 (UniProt Q9H204), the log2 fold change was inactive: 0.015. In the case of METAP1 (UniProt P53582), the log2 fold change is reported as inactive: 0.023.

Source: the supplement of paper PMC10849652
